Laboratory results taken from patent US10307498B2, “Cleaning and disinfecting composition” (American Sterilizer Company, priority 2015, dated 2019).
Some results were stated once for a whole list of compounds, not compound by compound.

Assay: Stability of peracetic acid initially and over the time required for multiple disinfection cycles, FIGS. 5A-5D
Type: physicochemical
Settings: one hour cycle time used for the calculation; PAA alone or combined with builders/part (B)

Question: With `CC(=O)OO` [PAA, peracetic acid] as the compound, how does the “number of complete disinfection cycles possible” value read?
Answer: up to 10 cycles
